Reference: publication PMC9666630
These are yes or no findings as the source states them, for the method shown. In cells and extracts the contact can be indirect. Here binding means that the protein was enriched with, or labelled near, the bait; the list need not be complete. A no says only that the protein was not detected with the bait. Where a sequence is shown, tags or fusion partners need not be part of it. One block for each binder: values may come before it.

Tests used:
Assay in all cases: affinity purification with mass spectrometry; IP-MS from about 20 g young inflorescence tissue of asf1a + ASF1A-3xFlag and asf1b + ASF1B-9Myc lines, Col-0 as negative control; anti-FLAG M2 magnetic beads or streptavidin beads; interactors: fold change >2 and FDR < 0.01
[1] = molecular target: T1, ASF1A-3xFlag-BLRP (pASF1A::ASF1A-3xFlag-BLRP complementing line) (Arabidopsis thaliana) (UniProt Q9C9M6)
T1 sequence: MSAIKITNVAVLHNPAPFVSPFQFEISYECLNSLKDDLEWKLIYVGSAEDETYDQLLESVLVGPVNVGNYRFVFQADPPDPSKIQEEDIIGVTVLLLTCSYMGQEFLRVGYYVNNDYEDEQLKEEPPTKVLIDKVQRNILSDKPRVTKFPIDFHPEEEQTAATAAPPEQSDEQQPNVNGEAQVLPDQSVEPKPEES

[2] = molecular target: T2, ASF1B-9xMyc-BLRP (pASF1B::ASF1B-9xMyc-BLRP complementing line) (Arabidopsis thaliana) (UniProt Q9LS09)
T2 sequence: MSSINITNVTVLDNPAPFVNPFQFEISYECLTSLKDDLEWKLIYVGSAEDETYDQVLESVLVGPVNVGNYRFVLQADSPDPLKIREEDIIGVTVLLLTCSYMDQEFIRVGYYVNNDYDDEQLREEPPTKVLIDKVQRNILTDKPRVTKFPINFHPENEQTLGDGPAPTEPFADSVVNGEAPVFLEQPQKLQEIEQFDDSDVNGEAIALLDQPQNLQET

[3] = molecular target: T3, ASF1A-3xFlag-BLRP (pASF1A::ASF1A-3xFlag-BLRP complementing line) (Arabidopsis thaliana), Q9C9M6; conditions: remark: other sources report otherwise
T3 chain: T1 sequence

binding [1]: binds
binding [2]: binds
B1: HIRA (histone regulator A), endogenous (protein, UniProt Q9LXN4 1-1024)
chain: MIAEKPFWVKHEGLQIFSIDVQPNGERFATGGGDHKVRIWNMKSVDKDLQNIDTKERLLATLRDHFGSVNCVRWAKNSRYVASGSDDQVIQIHERKPGSGTTEFGSGEAPDVENWKAVMTLRGHTADVVDLNWSPDDSMLASGSLDNTVHIWNMRTGMCTTVLRGHLSLVKGVTWDPIGSFIASQSDDKTVIIWRTSDWGMAHRTDGHWAKSLGSTFFRRLGWSPCGHFLTTTHGFQKPKHSAPVLERGEWSVAYDFLGHSAPIIVVRFNHSMFKRIPSSTHETKQVGWSNGTSKSGEKDLQSYNVIAMGSQDRTITVWTTGSARPLFVAKHFFGQSVVDLSWSPDGYSLFACSLDGTVAMIHFDPKELGVRLTDTELDELKKSRYGDVRGRQANLVESPAQLLLETASTKQAGSKRAASDVQQNQVTTKPSVSVESTAKRRKSQVDDRNKAAESTGQTLNKASTLNRVSSPVNQKVYRRPDGRKRIIPEAVGVPQQENNIMINGESHNFLPASAAAPAKGDSGDFPVEISNRDLSGKEIVCRNPDLKERSRITARATITESLVIEKVPGTSGRDGVLNVEQSVGIKESSSTDLLIRVFDWKDGEAAPPVCLEACPREHALDTVGAVSTSMVKETEISCKKSGETLWSDRIMGRVTVLAGNPNFWAAGCEDGSLQVYTKCGRRAMPTMMMGSAATFIDCDDSWKLLLVTRKGSLYVWDLFNRKCVLHDSLSSLVSSDVNLSSTVKGTIKVISVKLSKSGSPLVVLATRHAFLFDTSLMCWLRVADDCFPASNFSSSWNLGSAPCGELAGLQVDVRKYMARKPGWNRITDDGTQTRAHLESQLASSLALESPNEYRQCLLAYVRFLAREADESRLREVCESFLGPPTGMAEAASSDTNLSWDPYVLGVKKHKLLRNDILPAMASNRKVQRLLNEFIDLLSEYEDVETADPAPKGSTPTMNCGGVPSSLDQIGSDPPAMTATTPMTIDNDKPVSLENPAALDIGVCEKTGSEDRDKQDQNSRDSGS

binding [1]: no binding
binding [2]: no binding
B2: FASCIATA2 (FAS2), endogenous (protein, UniProt Q9SXY1 1-487)
chain: MKGGTIQISWHDGKPVLTVDFHPISGLLATAGADYDIKLWLINSGQAEKKVPSVSYQSSLTYHGCAVNTIRFSPSGELLASGADGGELFIWKLHPSETNQSWKVHKSLSFHRKDVLDLQWSPDDAYLISGSVDNSCIIWDVNKGSVHQILDAHCHYVQGVAWDPLAKYVASLSSDRTCRIYANKPQTKSKGVEKMNYVCQHVIMKADQQRGDETKTIKTHLFHDETLPSFFRRLSWSPDGSFLLIPAGSFKVSPTSEAVNATYVFSRKDLSRPALQLPGASKPVVVVRFCPVAFKLRGSSSEEGFFKLPYRLVFAIATLNSVYIYDTECVAPIAVLAGLHYAAITDITWSPNASYLALSSQDGYCTLVEFEDKELGEAVSISVGKKPVDGEEKKHDLEKGDELMTETTPDESKKQAELEQNEESKQPLPSKITTDGKEKEHIMQKTDDEVMTETRHEEENQPLQSKVNTPVSNKPARKRITPMAIDP

binding [3]: no binding
B3: FASCIATA1 (FAS1), endogenous, Q9SXY0 1-815 (protein)
chain: MDEVSTVNENENRKTMIEPKKLNKRKREPTAIENLTSEEKESQISSLNLEMKGLFDYFREVMDKSKRTDLFSGFSECSSLNSMVALLMEEMSLPLSKLVDEIYLKLKEKTESVTMVAVKSAVVSVGQRVSYGVLNVDADVLEDDSESCLWCWETRDLKIMPSSVRGVLKLRRTCRKKIHERITAVSAMLAALQREETEKLWRSDLSKAAEKLGKILSEVDIRSFMDNMMQKNSSEMAEKDSKREEKLLLKQLEKNRCEAEKEKKRMERQVLKEKLQQEKEQKLLQKAIVDENNKEKEETESRKRIKKQQDESEKEQKRREKEQAELKKQLQVQKQASIMERFLKKSKDSSLTQPKLPSSEVTAQELSCTKHENEIGKVVQAIDNAFSTTCEATVDDIRREHFASWRQLGHLLSSSKKHWGMRRQPKSELFPKLKLSTNSGVTSDGEPNMEKQGDGCEENNFDGRQCKPSSSNRKKSRRVKQLLQFDKSCRPGFYGIWPSQSQVVKPRRPLQKDPELDYEVDSDEEWEEEEAGESLSDCEKDEDESLEEGCSKADDEDDSEDDFMVPDGYLSEDEGVQVDRMDIDPSEQDANTTSSKQDQESPEFCALLQQQKHLQNLTDHALKKTQPLIICNLTHEKVSLLAAKDLEGTQKVEQICLRALMVRQFPWSSLIEISINDIQDEDQEASKFSCSQSTPPSNSKAKIIPDSDLLTVVSTIQSCSQGINRVVETLQQKFPDVPKTKLRQKVREISDFEDSRWQVKKEVLTKLGLSPSPDKGGKRLPKTISTFFSKRCLPPSTKPQPAVEDAAERLENENA
